Assay results taken from the supplement of paper PMC8728848.
The list shows a part of the results.

How the values were obtained:
Assay in all cases: glycan array binding signal (z-score within array); higher = stronger binding
Settings in all cases: glycan notation: IUPAC condensed, linker removed
[1] = target: GlcNAc(b1-3)Gal(b1-4)GlcNAc(b1-3)Gal(b1-4)GlcNAc(b1-3)Gal(b1-4)GlcNAc(b1-3)Gal(b1-4)GlcNAc(b1-2)[GlcNAc(b1-3)Gal(b1-4)GlcNAc(b1-3)Gal(b1-4)GlcNAc(b1-3)Gal(b1-4)GlcNAc(b1-3)Gal(b1-4)GlcNAc(b1-6)]Man(a1-6)[GlcNAc(b1-3)Gal(b1-4)GlcNAc(b1-3)Gal(b1-4)GlcNAc(b1-3)Gal(b1-4)GlcNAc(b1-3)Gal(b1-4)GlcNAc(b1-2)Man(a1-3)]Man(b1-4)GlcNAc(b1-4)[Fuc(a1-6)]GlcNAc
In short: (§1)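 The binding signal is a Z-score computed within each array. Data were drawn from 3228 arrays in the Consortium for Functional Glycomics database, restricted to those with a known protein sequence. Scores were averaged over arrays of the same protein sequence at different concentrations or buffers, and over linkers, and negative values can be taken as non-binding.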

[2] = target: GlcNAc(b1-3)Gal(b1-4)GlcNAc(b1-3)Gal(b1-4)GlcNAc(b1-3)GalNAc
In short: as §1

[3] = target: GlcNAc(b1-3)Gal(b1-4)GlcNAc(b1-3)GalNAc
In short: as §1

[4] = target: GlcNAc(b1-3)Gal(b1-4)GlcNAc(b1-3)[GlcNAc(b1-3)Gal(b1-4)GlcNAc(b1-3)]GalNAc
In short: as §1

[5] = target: GlcNAc(b1-3)Gal(b1-4)GlcNAc(b1-6)[Gal(b1-3)]GalNAc
In short: as §1

[6] = target: GlcNAc(b1-3)Gal(b1-4)GlcNAc(b1-6)[GlcNAc(b1-3)Gal(b1-3)]GalNAc
In short: as §1

[7] = target: GlcNAc(b1-3)Gal(b1-4)GlcNAc(b1-6)[GlcNAc(b1-3)]Gal(b1-4)GlcNAc
In short: as §1

GlcNAc(b1-3)GalNAc = target: GlcNAc(b1-3)GalNAc
In short: as §1

GlcNAc(b1-3)Man = target: GlcNAc(b1-3)Man
In short: as §1

[8] = target: GlcNAc(b1-3)[GlcNAc(b1-4)][GlcNAc(b1-6)]GlcNAc
In short: as §1

[9] = target: GlcNAc(b1-3)[GlcNAc(b1-6)]Gal(b1-4)GlcNAc
In short: as §1

[10] = target: GlcNAc(b1-3)[GlcNAc(b1-6)]GalNAc
In short: as §1

[11] = target: GlcNAc(b1-4)Gal(b1-4)GlcNAc
In short: as §1

GlcNAc(b1-4)GlcNAc = target: GlcNAc(b1-4)GlcNAc
In short: as §1

[12] = target: GlcNAc(b1-4)GlcNAc(b1-4)GlcNAc
In short: as §1

[13] = target: GlcNAc(b1-4)GlcNAc(b1-4)GlcNAc(b1-4)GlcNAc(b1-4)GlcNAc
In short: as §1

[14] = target: GlcNAc(b1-4)GlcNAc(b1-4)GlcNAc(b1-4)GlcNAc(b1-4)GlcNAc(b1-4)GlcNAc
In short: as §1

[15] = target: GlcNAc(b1-4)[GlcNAc(b1-6)]GalNAc
In short: as §1

[16] = target: GlcNAc(b1-6)Gal(b1-4)GlcNAc
In short: as §1

GlcNAc(b1-6)GalNAc = target: GlcNAc(b1-6)GalNAc
In short: as §1

[17] = target: GlcNAc6S(b1-3)Gal(b1-4)GlcNAc
In short: as §1

Kdn(a2-3)Gal(b1-3)GalNAc = target: Kdn(a2-3)Gal(b1-3)GalNAc
In short: as §1

Kdn(a2-3)Gal(b1-3)GlcNAc = target: Kdn(a2-3)Gal(b1-3)GlcNAc
In short: as §1

Kdn(a2-3)Gal(b1-4)Glc = target: Kdn(a2-3)Gal(b1-4)Glc
In short: as §1

Kdn(a2-3)Gal(b1-4)GlcNAc = target: Kdn(a2-3)Gal(b1-4)GlcNAc
In short: as §1

[18] = target: Kdn(a2-3)Gal(b1-4)[Fuc(a1-3)]GlcNAc
In short: as §1

Kdn(a2-6)Gal(b1-4)GlcNAc = target: Kdn(a2-6)Gal(b1-4)GlcNAc
In short: as §1

[19] = target: Man(a1-2)Man(a1-2)Man(a1-3)Man
In short: as §1

[20] = target: Man(a1-2)Man(a1-2)Man(a1-6)[Man(a1-3)]Man
In short: as §1

Man(a1-2)Man(a1-3)Man = target: Man(a1-2)Man(a1-3)Man
In short: as §1

[21] = target: Man(a1-2)Man(a1-3)[Man(a1-2)Man(a1-6)]Man
In short: as §1

[22] = target: Man(a1-2)Man(a1-3)[Man(a1-2)Man(a1-6)]Man(a1-6)[Man(a1-2)Man(a1-2)Man(a1-3)]Man
In short: as §1

[23] = target: Man(a1-2)Man(a1-3)[Man(a1-2)Man(a1-6)]Man(a1-6)[Man(a1-2)Man(a1-2)Man(a1-3)]Man(b1-4)GlcNAc(b1-4)GlcNAc
In short: as §1

[24] = target: Man(a1-2)Man(a1-3)[Man(a1-6)]Man(a1-6)[Man(a1-2)Man(a1-3)]Man(b1-4)GlcNAc(b1-4)GlcNAc
In short: as §1

[25] = target: Man(a1-2)Man(a1-6)[Man(a1-3)]Man(a1-6)[Man(a1-2)Man(a1-2)Man(a1-3)]Man
In short: as §1

[26] = target: Man(a1-2)Man(a1-6)[Man(a1-3)]Man(a1-6)[Man(a1-2)Man(a1-2)Man(a1-3)]Man(b1-4)GlcNAc(b1-4)GlcNAc
In short: as §1

Man(a1-3)[Man(a1-6)]Man = target: Man(a1-3)[Man(a1-6)]Man
In short: as §1

[27] = target: Man(a1-3)[Man(a1-6)]Man(a1-6)[Man(a1-2)Man(a1-3)]Man(b1-4)GlcNAc(b1-4)GlcNAc
In short: as §1

[28] = target: Man(a1-3)[Man(a1-6)]Man(a1-6)[Man(a1-3)]Man
In short: as §1

[29] = target: Man(a1-3)[Man(a1-6)]Man(a1-6)[Man(a1-3)]Man(b1-4)GlcNAc(b1-4)GlcNAc
In short: as §1

[30] = target: Man(a1-3)[Man(a1-6)]Man(b1-4)GlcNAc(b1-4)GlcNAc
In short: as §1

[31] = target: Man(a1-3)[Man(a1-6)]Man(b1-4)GlcNAc(b1-4)[Fuc(a1-6)]GlcNAc
In short: as §1

Man(a1-6)Man = target: Man(a1-6)Man
In short: as §1

Man(b1-4)GlcNAc = target: Man(b1-4)GlcNAc
In short: as §1

MurNAc(b1-4)GlcNAc = target: MurNAc(b1-4)GlcNAc
In short: as §1

B1: DCIR1 (Mus musculus), Q9QZ15 (protein)
chain: MASEITYAEVKFKNESNSLHTYSESPAAPREKPIRDLRKPGSPSLLLTSLMLLLLLLAITFLVAFIIYFQKYSQLLEEKKAAKNIMHNELNCTKSVSPMEDKVWSCCPKDWRLFGSHCYLVPTVSSSASWNKSEENCSRMGAHLVVIQSQEEQDFITGILDTHAAYFIGLWDTGHRQWQWVDQTPYEESITFWHNGEPSSGNEKCATIIYRWKTGWGWNDISCSLKQKSVCQMKKINL
For B1, the “glycan array binding signal (z-score)” value [1] was -0.786, the “glycan array binding signal (z-score)” value [2] was -1.06 and the “glycan array binding signal (z-score)” value [3] was -0.614. For the same binder, the “glycan array binding signal (z-score)” value [4] was -0.946, the “glycan array binding signal (z-score)” value [5] was -1.06 and the “glycan array binding signal (z-score)” value [6] was -0.947. The “glycan array binding signal (z-score)” value [7] was -1.02, the “glycan array binding signal (z-score)” value (GlcNAc(b1-3)GalNAc) was -0.881 and the “glycan array binding signal (z-score)” value (GlcNAc(b1-3)Man) was -0.299. The “glycan array binding signal (z-score)” value [8] was -0.665, the “glycan array binding signal (z-score)” value [9] was -0.314 and the “glycan array binding signal (z-score)” value [10] was -0.343. For the same binder, the “glycan array binding signal (z-score)” value [11] was -0.421, the “glycan array binding signal (z-score)” value (GlcNAc(b1-4)GlcNAc) was -0.434 and the “glycan array binding signal (z-score)” value [12] was -0.259. For the same binder, the “glycan array binding signal (z-score)” value [13] was -0.376, the “glycan array binding signal (z-score)” value [14] was 1.75 and the “glycan array binding signal (z-score)” value [15] was 0.121. For the same binder, the “glycan array binding signal (z-score)” value [16] was 0.643, the “glycan array binding signal (z-score)” value (GlcNAc(b1-6)GalNAc) was 0.182 and the “glycan array binding signal (z-score)” value [17] was -0.546. The “glycan array binding signal (z-score)” value (Kdn(a2-3)Gal(b1-3)GalNAc) was -0.193, the “glycan array binding signal (z-score)” value (Kdn(a2-3)Gal(b1-3)GlcNAc) was -0.781 and the “glycan array binding signal (z-score)” value (Kdn(a2-3)Gal(b1-4)Glc) was -0.178. The “glycan array binding signal (z-score)” value (Kdn(a2-3)Gal(b1-4)GlcNAc) was -0.687, the “glycan array binding signal (z-score)” value [18] was 2.92 and the “glycan array binding signal (z-score)” value (Kdn(a2-6)Gal(b1-4)GlcNAc) was -0.687. The “glycan array binding signal (z-score)” value [19] was -0.962, the “glycan array binding signal (z-score)” value [20] was 4.44 and the “glycan array binding signal (z-score)” value (Man(a1-2)Man(a1-3)Man) was -0.644. For the same binder, the “glycan array binding signal (z-score)” value [21] was -0.875, the “glycan array binding signal (z-score)” value [22] was -0.716 and the “glycan array binding signal (z-score)” value [23] was -0.197. For the same binder, the “glycan array binding signal (z-score)” value [24] was -0.907, the “glycan array binding signal (z-score)” value [25] was -1.02 and the “glycan array binding signal (z-score)” value [26] was 1.5. The “glycan array binding signal (z-score)” value (Man(a1-3)[Man(a1-6)]Man) was -0.497, the “glycan array binding signal (z-score)” value [27] was -0.363 and the “glycan array binding signal (z-score)” value [28] was 0.267. The “glycan array binding signal (z-score)” value [29] was -0.185, the “glycan array binding signal (z-score)” value [30] was -0.644 and the “glycan array binding signal (z-score)” value [31] was -0.657. For the same binder, the “glycan array binding signal (z-score)” value (Man(a1-6)Man) was 2.57, the “glycan array binding signal (z-score)” value (Man(b1-4)GlcNAc) was 2.02 and the “glycan array binding signal (z-score)” value (MurNAc(b1-4)GlcNAc) was -0.939.
